{"source": "patent US20240238199A1", "about": "“STABLE LIQUID PHARMACEUTICAL COMPOSITIONS HAVING HIGH DRUG LOADINGS OF MEDIUM CHAIN TRIGLYCERIDES AND METHODS RELATED THERETO” (CERECIN INC., priority 2021, published 2024)", "test": "Sweetening and flavouring agent taste / palatability investigation", "data": [{"smiles": "OC[C@H]1O[C@H](O[C@]2(CCl)O[C@H](CCl)[C@@H](O)[C@@H]2O)[C@H](O)[C@@H](O)[C@H]1Cl", "note": "[sucralose]", "values": [{"measurement": "concentration found to provide a sufficient level of sweetness", "value": "0.05%-0.1"}]}]}
